Assay [1] concerns the target T1, Flag-tagged CCDC8 (human) (UniProt Q9H0W5).
T1 sequence: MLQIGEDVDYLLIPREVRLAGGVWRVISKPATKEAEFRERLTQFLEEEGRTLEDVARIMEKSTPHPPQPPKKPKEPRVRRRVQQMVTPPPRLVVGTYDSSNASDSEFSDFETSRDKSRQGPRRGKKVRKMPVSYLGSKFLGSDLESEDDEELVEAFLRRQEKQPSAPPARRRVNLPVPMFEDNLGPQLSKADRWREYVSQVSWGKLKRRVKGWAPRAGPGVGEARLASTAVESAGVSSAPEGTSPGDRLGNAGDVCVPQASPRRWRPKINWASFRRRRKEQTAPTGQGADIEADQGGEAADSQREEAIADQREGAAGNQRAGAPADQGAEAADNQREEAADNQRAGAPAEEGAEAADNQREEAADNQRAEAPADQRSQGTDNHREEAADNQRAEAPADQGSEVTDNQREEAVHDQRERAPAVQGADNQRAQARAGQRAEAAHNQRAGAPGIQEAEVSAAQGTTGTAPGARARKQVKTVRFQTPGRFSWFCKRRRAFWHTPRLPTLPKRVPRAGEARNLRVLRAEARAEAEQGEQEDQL
Nature of the assay: co-IP; lysates of transfected cells (BC100 buffer: 20 mM Tris-HCl pH 7.5, 100 mM NaCl, 1% Triton X-100, 1% CHAPS) incubated with anti-Flag M2 agarose beads at 4 °C overnight, five washes, eluted with 3xFlag peptide, Western blot; proteasome inhibitor PS-341 added in Fig. 4c.

The target in assay [2] is Gag mutant Δ8-126 (lacking all but the first 8 amino acids in matrix) (HIV-1 (BH10 assumed)). Nature of the assay: incorporation into virus-like particles (Western blot of viral lysates); virus-like particles released from transfected cells; viral lysates probed with anti-Gag-CAp24 and anti-CCDC8. (In general: A western blot detects proteins with antibodies after separation by electrophoresis.)

These are yes or no findings as the source states them, for the method shown. For some assays here: Binding seen in cells or lysates may run through a third protein. For some assays here: Binding calls can cover weak binding; strength is not graded here. For some assays here: Where a sequence is shown, tags or fusion partners need not be part of it.

As for “exogenously expressed HIV-1 Gag (co-immunoprecipitation)”, the binding result in assay [1] was “binds”.

B1: endogenous coiled-coil domain containing protein 8 (CCDC8) (protein, UniProt Q9H0W5 1-538)
chain: T1 sequence
Consider B1, for which the binding result in assay [2] is “no binding”.

For the origin of these results see article PMC4589731.
